In patent US7998474B2, “Methods for treating an inflammatory disease of the bowel” (Rowett Research Institute, priority 2001, dated 2011) one finds binding data, which are given here for three substances.

By UniProt entry, the sequences of proteins in these tests, tags left out. Where a name states a change or a piece, a line headed by the entry shows the natural chain unless it says otherwise.
UniProt Q04206: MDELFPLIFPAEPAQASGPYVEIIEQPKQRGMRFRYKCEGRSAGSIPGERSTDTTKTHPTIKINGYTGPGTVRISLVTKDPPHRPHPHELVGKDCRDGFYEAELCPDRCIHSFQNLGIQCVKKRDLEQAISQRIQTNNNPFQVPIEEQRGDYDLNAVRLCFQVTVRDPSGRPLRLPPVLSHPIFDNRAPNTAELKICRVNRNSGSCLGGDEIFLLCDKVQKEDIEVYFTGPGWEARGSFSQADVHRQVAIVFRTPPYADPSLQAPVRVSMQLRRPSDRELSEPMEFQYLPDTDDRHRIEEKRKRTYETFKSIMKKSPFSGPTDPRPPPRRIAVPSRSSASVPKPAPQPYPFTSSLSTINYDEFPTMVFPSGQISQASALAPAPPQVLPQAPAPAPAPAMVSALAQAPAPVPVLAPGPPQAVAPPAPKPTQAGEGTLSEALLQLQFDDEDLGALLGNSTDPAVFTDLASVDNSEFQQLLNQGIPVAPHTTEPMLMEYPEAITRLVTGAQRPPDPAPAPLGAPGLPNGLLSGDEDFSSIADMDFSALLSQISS

These are yes or no findings as the source states them, for the method shown. For part of these data: Binding seen in cells or lysates may run through a third protein. Some results given as binding are weak or reduced against the parent protein; the word gives no strength.

In assay [1] the target is YFP-RelA (chimeric RelA linked to yellow fluorescent protein) (human) (UniProt Q04206). The assay can be described thus: fluorescence microscopy of transfected Caco-2 and Hela cells, and IP (results not shown).
Assay [2] has as its target RelA [NF-κB p65] (human) (UniProt Q04206). As to the kind of experiment: co-immunoprecipitation from Caco-2 cell lysate, western blot.
The target is the same in assay [3]. The assay can be described thus: in vitro translation and immunoprecipitation.
Assay [4] shares this target. As to the kind of experiment: summary of experimental work (co-immunoprecipitation, co-localisation in Caco-2 cells).
Assay [5] shares this target. The assay can be described thus: in vitro translation and immunoprecipitation (FIG. 5B legend).

“CFP-PPARγ (chimeric construct of wild type human PPARγ and cyan fluorescent protein) (from UniProt P37231 1-477)”: in assay [1], the binding result is “binds”.

Consider “CFP-PPARγ (DN) (chimeric construct of the dominant negative mutant of PPARγ and cyan fluorescent protein) (from UniProt P37231 1-477)”, for which the binding entry in assay [1] is recorded as “binds”.

In the case of “peroxisome proliferator-activated receptor gamma (PPARγ) (from UniProt P37231 1-477)”, the binding entry with RelA [NF-κB p65] (human) [2], with RelA [NF-κB p65] (human) [3], in the assay with RelA [NF-κB p65] (human) [4] and with RelA [NF-κB p65] (human) [5] was “binds” throughout.
